Measured data: PubChem BioAssay AID743121 (NCATS, 2013)
Aim: 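Knock-downs that sensitise breast cancer cells to camptothecin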 (primary screen). System: MDA-MB-231 cells, a human breast cancer line. Knock-down reagent: single siRNA against human genes, 20 nM siRNA (0.8 pmol per well). Duration: 120 h (drug added 48 h after transfection, read 72 h later). Treatment: camptothecin 20 nM (about EC30) for 72 h; vehicle 0.1% DMSO in parallel plates. Measured: 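Cell viability by ATP luminescence (CellTiter-Glo) as % of non-targeting siRNA wells, and the log2 ratio of viability without drug over viability with camptothecin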. Direction: log2 vehicle/camptothecin viability: higher = stronger sensitisation to camptothecin; viability with camptothecin: higher = more viable cells. Rule for the call: 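Active genes have an RSA gene-level p-value below 0.001, computed from the ratios of their separate siRNAs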.
The whole screen tested about 26,000 reagents; shown is a part drawn at random. In the full data, 167 (0.63%) got an active call. 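Calls are per gene from RSA p-values that are not deposited; an individual active-marked siRNA can sensitise only weakly.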 Reagents against one gene are numbered here. Further read-outs or replicates are left out here.

no.	gene	reagent no.	log2 vehicle/camptothecin viability	viability with camptothecin (% of control)	call
1	ACTN4	1	0.148	56.6	inactive
2	ACTN4	2	-0.182	15	inactive
3	ACTN4	3	0.345	47	inactive
4	HDC	1	-0.346	123	inactive
5	HDC	2	-0.0394	95.1	inactive
6	HDC	3	-0.386	101	inactive
7	HDC	4	-0.441	80.9	inactive
8	PTN	1	0.318	56.1	inactive
9	PTN	2	-0.0848	43.7	inactive
10	PTN	3	0.181	54.8	inactive
11	PTN	4	0.242	35.9	inactive
12	HACE1	1	0.258	85.4	inactive
13	HACE1	2	-0.21	86.7	inactive
14	HACE1	3	-0.236	109	inactive
15	HACE1	4	0.366	15	inactive
16	TCF21	1	-0.276	89.2	inactive
17	TCF21	2	-0.241	89.3	inactive
18	TCF21	3	0.753	57.8	inactive
19	TCF21	4	0.168	43.6	inactive
20	TCF21	5	-0.0907	82.1	inactive
21	TCF21	6	-0.307	41	inactive
22	TCF21	7	-0.289	61.3	inactive
23	TCF21	8	-0.0215	68	inactive
24	RRM2B	1	0.244	43.2	inactive
25	RRM2B	2	-0.22	69.8	inactive
26	RRM2B	3	-0.0955	87.1	inactive
27	RRM2B	4	0.233	35.5	inactive
28	GRIN2A	1	-0.716	54	inactive
29	GRIN2A	2	-0.0708	90.8	inactive
30	GRIN2A	3	-0.0184	91.9	inactive
31	NR3C1	1	0.223	41.8	inactive
32	NR3C1	2	-0.304	82.1	inactive
33	NR3C1	3	0.148	56.4	inactive
34	NR3C1	4	-0.109	88.2	inactive
35	GRM1	1	0.362	48.8	inactive
36	GRM1	2	-0.462	45.4	inactive
37	GRM1	3	-0.108	103	inactive
38	GRM1	4	-0.144	96.8	inactive
39	DUSP26	1	-0.161	33.8	inactive
40	DUSP26	2	-0.113	85	inactive
41	DUSP26	3	-0.5	116	inactive
42	DUSP26	4	0.0246	80.8	inactive
43	VDR	1	-0.463	43.8	inactive
44	VDR	2	-0.565	57.4	inactive
45	VDR	3	-0.256	87.8	inactive
46	VDR	4	0.175	71.3	inactive
47	MTM1	1	-0.657	108	inactive
48	MTM1	2	-0.537	87.2	inactive
49	MTM1	3	-0.137	92.8	inactive
50	MTM1	4	-0.055	88.7	inactive
51	JAG2	1	0.389	55.7	inactive
52	JAG2	2	-0.114	91.8	inactive
53	JAG2	3	-0.111	112	inactive
54	JAG2	4	-0.488	72.1	inactive
55	WSB2	1	0.622	57.7	inactive
56	WSB2	2	0.157	70.2	inactive
57	WSB2	3	-0.308	62	inactive
58	BIRC2	1	0.84	48.6	inactive
59	BIRC2	2	-0.439	13.1	inactive
60	BIRC2	3	0.122	49.9	inactive
61	BIRC2	4	-0.0586	83.8	inactive
62	RPL10P16	1	0.00751	88.5	inactive
63	NRBP2	1	-0.0838	85.2	inactive
64	NRBP2	2	-0.634	50.4	inactive
65	NRBP2	3	-0.022	101	inactive
66	NRBP2	4	-0.198	79.4	inactive
67	NTS	1	-0.109	60.2	inactive
68	NTS	2	-0.0282	44.6	inactive
69	NTS	3	0.0597	84.5	inactive
70	NTS	4	0.417	64.4	inactive
71	HRH3	1	-0.252	94.9	inactive
72	HRH3	2	-0.272	52.7	inactive
73	HRH3	3	-0.212	81.5	inactive
74	HRH3	4	-0.0078	124	inactive
75	GRID1	1	-0.0873	109	inactive
76	GRID1	2	-0.2	110	inactive
77	GRID1	3	-0.233	55.1	inactive
78	GRID1	4	0.287	43.3	inactive
79	DBI	1	-0.511	98.4	inactive
80	DBI	2	-0.445	130	inactive
81	DBI	3	-0.184	80.2	inactive
82	DBI	4	-0.218	84.4	inactive
83	TGFBRAP1	1	-0.214	81.8	inactive
84	TGFBRAP1	2	0.116	42	inactive
85	TGFBRAP1	3	-0.248	132	inactive
86	TGFBRAP1	4	-0.161	104	inactive
87	CHRNA3	1	0.00791	93.6	inactive
88	CHRNA3	2	0.822	50	inactive
89	CHRNA3	3	0.374	33.6	inactive
90	CHRNA3	4	-0.14	90.5	inactive

5 consecutive entries already listed, for reference:
no.	gene	reagent no.	log2 vehicle/camptothecin viability	viability with camptothecin (% of control)	call
23	TCF21	8	-0.0215	68	inactive
24	RRM2B	1	0.244	43.2	inactive
25	RRM2B	2	-0.22	69.8	inactive
26	RRM2B	3	-0.0955	87.1	inactive
27	RRM2B	4	0.233	35.5	inactive
